# In the supplement of paper PMC5949888:
# Most values lie at the floor of the assay. Slopes are relative: functional sequences can read slightly below zero.
# System: Saccharomyces cerevisiae PS128 hsf1 delta, HSF1(1-493) fusion
# Assay: growth estimate (transactivation domain function in HSF1 fusion, heat-shock survival) (a.u. (slope of normalised read count over time)); higher = stronger growth at 37°C, i.e. more transactivation activity
# Conditions: library: random library
# Protocol: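 Random 60-nt DNA library encoding peptides of up to 20 aa, fused to the C-terminus of yeast HSF1 residues 1-493 (C-terminal TAD deleted) and expressed from the native HSF1 promoter on a CEN plasmid in hsf1-deleted S. cerevisiae PS128. Cells were selected at 37°C on -trp 5-FOA plates for 0, 2, 4, 6 and 8 days and amplicons were sequenced. Growth estimate is the slope of a robust linear fit of total-sum-normalised read counts (normalised to the first time point) over time, using at least 2 replicates. Sequences are classed functional (TAD activity) above a threshold of -0.13, set from stop-codon control sequences.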
row,Substance,growth estimate
1,IFLR,< -0.25
2,IFNSRSGVRESH,< -0.25
3,IFQSESIDDSSRWRET,< -0.25
4,IFRIPRGARPGWKIVARVRC,< -0.25
5,IFSGHPLVGST,< -0.25
6,IFTGSPE,< -0.25
7,IFTTGTDLSRVLASPLPDKI,< -0.25
8,IFTV,< -0.25
9,IFVANWQVVLFARVSGIHAL,< -0.25
10,IGAICDHVALSNFRGAHCMS,< -0.25
11,IGASSFYLHVEGDGYPRHKR,< -0.25
12,IGAWSVIQELFPHLVVGDPN,< -0.25
13,IGDGGTGEAPILRLSCLKGT,< -0.25
14,IGDNWTYTSRGYTA,< -0.25
15,IGDSQLGYGHISSVMERSL,-0.199
16,IGFFHKLQYGS,< -0.25
17,IGGDGNRGTDDGCHKTRCIP,< -0.25
18,IGGEPSIQSSKPT,< -0.25
19,IGGKCDRYPGLLPGGCHYRR,-0.246
20,IGGRPVCVRCREGCGSG,< -0.25
21,IGGSAIGRGYGFNHLGYMPS,< -0.25
22,IGKTRV,< -0.25
23,IGLCAVTIAGIWVEH,< -0.25
24,IGLGRRVPELPGS,< -0.25

row,Substance,growth estimate
1,IGLHCDPQQSTSDAGRLNLR,< -0.25
2,IGLIPGVLTPVDIYDCPLLD,< -0.25
3,IGMGPGVKMRC,< -0.25
4,IGMLVARAAASGTQTGSGSE,< -0.25
5,IGNMGLVVLLCCGQLSILRP,< -0.25
6,IGPCVACSTESDRVSTVPTY,< -0.25
7,IGPERDYVTGNPFAVLLHCH,< -0.25
8,IGPPLGNIGPRVLRSRSYRP,< -0.25
9,IGPTHIQRTRYAVSPSRDVG,< -0.25
10,IGRCYDSTPCDAAQCQGVRA,-0.238
11,IGRRRRVEVFAFEVLLLRSR,< -0.25
12,IGSCIQARYIQPGLSFGLLV,< -0.25
13,IGSEFSNQISPEPAIKSRVM,< -0.25
14,IGSQDPPNHRSWATCYRGFM,< -0.25
15,IGSRVSPLCSSA,< -0.25
16,IGTESFANGG,-0.246
17,IGTEVCKCRRQS,< -0.25
18,IGTGAIRREARLRVGPQGSI,< -0.25
19,IGTQ,< -0.25
20,IGVDRTPRLRFRVPRLLGNH,< -0.25
21,IGVVGIV,< -0.25
22,IHGDGAQARVTGI,< -0.25
23,IHNLKGRGSLFPRV,< -0.253
24,IHRVKAAWSIKTARLSRQCS,< -0.25

row,Substance,growth estimate
1,IHS,< -0.25
2,IHSMESRAEFRPTICLH,< -0.25
3,IHTQASVISWGAARLGKLEV,< -0.25
4,IHWGLRSAISSSD,< -0.25
5,IHWSKGSAILGPGLRKGQRK,< -0.25
6,IIEDSVLM,< -0.25
7,IIFSRRHLFKLLTAGLLPRR,< -0.25
8,IIGQLRQD,< -0.25
9,IIGRVVLAMQGKLRIAGLFV,< -0.25
10,IIGSKTR,< -0.25
11,IIGV,< -0.25
12,III,< -0.25
13,IILNALECIL,< -0.25
14,IILPVLMFYSSFVMNVRGQR,-0.248
15,IILRLPTHRYC,< -0.25
16,IIMCFPQARNTHLVDLRGIG,-0.246
17,IIPEHLVTCRGGLLVHPTPL,< -0.25
18,IIPGASTPCGPSDNFPRIVR,< -0.25
19,IIRI,< -0.25
20,IIRMPPGIEHASGSI,< -0.25
21,IIRVLQLRKGLTTGLGEFTT,< -0.25
22,IISEWVLAVLATLKGV,< -0.25
23,IISGDYCNCCYRLVWHKGHC,< -0.25
24,IISR,< -0.25

row,Substance,growth estimate
1,IITVLRFASVPEVDPSCQPW,< -0.25
2,IITVSVSMTLFTTLEAIIWW,< -0.25
3,IKAISPRARGVPGHEAGVYR,< -0.25
4,IKCYTPGVGCTSSRGGCNTE,< -0.25
5,IKEYRSTSWLSVTL,< -0.25
6,IKGAVRLSGLVTSPPDHTRS,< -0.25
7,IKGLMVRSNEYCFYCANTFP,< -0.25
8,IKIHLDAHTQ,< -0.25
9,IKIMSIGGQYRFSRSGLPAV,< -0.25
10,IKKTDGNEKIQVSNNSTVIS,< -0.25
11,IKKTLKSLYNESNPLLMEGR,< -0.25
12,IKLSFGRREYAYGDPDLLLP,< -0.25
13,IKPIAKTD,< -0.25
14,IKQVS,< -0.25
15,IKRVIGAG,< -0.25
16,IKRYWDPTIAM,< -0.25
17,IKVHT,< -0.25
18,IKVL,< -0.25
19,IKYVARGPQGDWGSLTCYNA,-0.245
20,ILAALRRGRYRAAPLLM,< -0.25
21,ILAGP,< -0.25
22,ILAILKSYSVRDYVLRSGCG,< -0.25
23,ILANGVYLELRSVMAHRCPR,< -0.25
24,ILARRETM,< -0.25

row,Substance,growth estimate
1,ILCEFEGLPYGGNVLCVSIT,-0.248
2,ILCLMKACHAPSL,< -0.25
3,ILCLSIPRPKGGLEGAYAIV,< -0.25
4,ILDSRCGSLCM,< -0.25
5,ILER,< -0.25
6,ILFHSDHYSMCCLRPLTILL,< -0.25
7,ILFRLSGLV,< -0.25
8,ILGFVAWPAHAPAWLGIVSG,-0.246
9,ILGSDIG,< -0.25
10,ILH,< -0.25
11,ILHFLSRISCALLVSYIPGQ,< -0.25
12,ILIGSENFTSCEVQSALVR,< -0.25
13,ILKRRSA,< -0.25
14,ILKVCGGLGYRGL,< -0.25
15,ILMWYPRYASVFHRVLSDWG,< -0.25
16,ILNSMDRDYFGAM,< -0.25
17,ILPPNH,< -0.25
18,ILPVILASYTITYP,< -0.25
19,ILQP,< -0.25
20,ILRGV,< -0.25
21,ILRPRPSGVMRAQLHTVVRY,-0.243
22,ILSDLTGIVTGLTPSTRGSS,< -0.25
23,ILSGTKRYGVVGVCRNELAV,< -0.25
24,ILSWWDNSWMTSHRGL,< -0.25

row,Substance,growth estimate
1,ILSYSAMCMNIRVLLGVRSM,< -0.25
2,ILTQGSTVSPPYHRVGPITS,< -0.25
3,ILV,< -0.25
4,ILVRSAPSAIGLRMASLVGV,< -0.25
5,ILYLRGFSRCTRLFDLFAKR,< -0.25
6,IMA,< -0.25
7,IMG,< -0.25
8,IMGFCVLDVSTDVVLDLHR,< -0.25
9,IMGHEIPFAP,< -0.25
10,IMGLTAGSNLSECKGRVSPT,< -0.25
11,IMHEGDIVRTRWRVYTRDNC,< -0.25
12,IMQGEERW,< -0.25
13,IMRARRSRFQEI,-0.246
14,IMSERGSCLASQGWRRRRHL,< -0.25
15,IMSSNQCQLRHSEVSRTSHL,< -0.25
16,IMVAHPVRKLLRPVSESLDL,< -0.25
17,IMVFLVSQ,< -0.25
18,IMYAWFDPPRSKFCPGALLA,-0.0077
19,INAVGYSVRLSL,< -0.25
20,INCAPSSQVCAAQGWKNWLY,-0.201
21,INDRRS,< -0.25
22,INGAYVRPRGGLSERFT,< -0.25
23,INGHYESACTHNDKDPKGPG,< -0.25
24,INNHQEHIRRLLSGLGPHAL,< -0.25

# A section from further up:
row,Substance,growth estimate
4,ILDSRCGSLCM,< -0.25
5,ILER,< -0.25
6,ILFHSDHYSMCCLRPLTILL,< -0.25
7,ILFRLSGLV,< -0.25
8,ILGFVAWPAHAPAWLGIVSG,-0.246
9,ILGSDIG,< -0.25
10,ILH,< -0.25
11,ILHFLSRISCALLVSYIPGQ,< -0.25
12,ILIGSENFTSCEVQSALVR,< -0.25
13,ILKRRSA,< -0.25
14,ILKVCGGLGYRGL,< -0.25
15,ILMWYPRYASVFHRVLSDWG,< -0.25
16,ILNSMDRDYFGAM,< -0.25
17,ILPPNH,< -0.25
18,ILPVILASYTITYP,< -0.25
19,ILQP,< -0.25
20,ILRGV,< -0.25
21,ILRPRPSGVMRAQLHTVVRY,-0.243
22,ILSDLTGIVTGLTPSTRGSS,< -0.25
23,ILSGTKRYGVVGVCRNELAV,< -0.25
24,ILSWWDNSWMTSHRGL,< -0.25
1,ILSYSAMCMNIRVLLGVRSM,< -0.25
2,ILTQGSTVSPPYHRVGPITS,< -0.25
3,ILV,< -0.25
4,ILVRSAPSAIGLRMASLVGV,< -0.25
5,ILYLRGFSRCTRLFDLFAKR,< -0.25
6,IMA,< -0.25
7,IMG,< -0.25
8,IMGFCVLDVSTDVVLDLHR,< -0.25
9,IMGHEIPFAP,< -0.25
10,IMGLTAGSNLSECKGRVSPT,< -0.25
11,IMHEGDIVRTRWRVYTRDNC,< -0.25
12,IMQGEERW,< -0.25
13,IMRARRSRFQEI,-0.246
14,IMSERGSCLASQGWRRRRHL,< -0.25
15,IMSSNQCQLRHSEVSRTSHL,< -0.25
16,IMVAHPVRKLLRPVSESLDL,< -0.25
17,IMVFLVSQ,< -0.25
18,IMYAWFDPPRSKFCPGALLA,-0.0077
19,INAVGYSVRLSL,< -0.25
20,INCAPSSQVCAAQGWKNWLY,-0.201
21,INDRRS,< -0.25
22,INGAYVRPRGGLSERFT,< -0.25
